{"source": "the supplement of paper PMC8728848", "experiment_in_all_cases": "glycan array binding signal (z-score within array); higher = stronger binding", "conditions_in_all_cases": "glycan notation: IUPAC condensed, linker removed", "key": {"[1]": {"biological_target": "GlcNAc(b1-4)GlcNAc(b1-4)GlcNAc(b1-4)GlcNAc(b1-4)GlcNAc(b1-4)GlcNAc", "method_in_brief": "(§1)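 Columns mapping to the same glycan were averaged after glycan names were converted to IUPAC-condensed notation. The data come from 3228 arrays in the Consortium for Functional Glycomics database, limited to those with an available protein sequence. Binding is reported as a within-array Z-score averaged across arrays of one protein sequence and across linkers.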"}, "[2]": {"biological_target": "GlcNAc(b1-4)[GlcNAc(b1-6)]GalNAc", "method_in_brief": "as §1"}, "[3]": {"biological_target": "GlcNAc(b1-6)Gal(b1-4)GlcNAc", "method_in_brief": "as §1"}, "GlcNAc(b1-6)GalNAc": {"biological_target": "GlcNAc(b1-6)GalNAc", "method_in_brief": "as §1"}, "[4]": {"biological_target": "GlcNAc6S(b1-3)Gal(b1-4)GlcNAc", "method_in_brief": "as §1"}, "Kdn(a2-3)Gal(b1-3)GalNAc": {"biological_target": "Kdn(a2-3)Gal(b1-3)GalNAc", "method_in_brief": "as §1"}, "Kdn(a2-3)Gal(b1-3)GlcNAc": {"biological_target": "Kdn(a2-3)Gal(b1-3)GlcNAc", "method_in_brief": "as §1"}, "Kdn(a2-3)Gal(b1-4)Glc": {"biological_target": "Kdn(a2-3)Gal(b1-4)Glc", "method_in_brief": "as §1"}, "Kdn(a2-3)Gal(b1-4)GlcNAc": {"biological_target": "Kdn(a2-3)Gal(b1-4)GlcNAc", "method_in_brief": "as §1"}, "[5]": {"biological_target": "Kdn(a2-3)Gal(b1-4)[Fuc(a1-3)]GlcNAc", "method_in_brief": "as §1"}, "Kdn(a2-6)Gal(b1-4)GlcNAc": {"biological_target": "Kdn(a2-6)Gal(b1-4)GlcNAc", "method_in_brief": "as §1"}, "[6]": {"biological_target": "Man(a1-2)Man(a1-2)Man(a1-3)Man", "method_in_brief": "as §1"}, "[7]": {"biological_target": "Man(a1-2)Man(a1-2)Man(a1-6)[Man(a1-3)]Man", "method_in_brief": "as §1"}, "Man(a1-2)Man(a1-3)Man": {"biological_target": "Man(a1-2)Man(a1-3)Man", "method_in_brief": "as §1"}, "[8]": {"biological_target": "Man(a1-2)Man(a1-3)[Man(a1-2)Man(a1-6)]Man", "method_in_brief": "as §1"}, "[9]": {"biological_target": "Man(a1-2)Man(a1-3)[Man(a1-2)Man(a1-6)]Man(a1-6)[Man(a1-2)Man(a1-2)Man(a1-3)]Man", "method_in_brief": "as §1"}, "[10]": {"biological_target": "Man(a1-2)Man(a1-3)[Man(a1-2)Man(a1-6)]Man(a1-6)[Man(a1-2)Man(a1-2)Man(a1-3)]Man(b1-4)GlcNAc(b1-4)GlcNAc", "method_in_brief": "as §1"}, "[11]": {"biological_target": "Man(a1-2)Man(a1-3)[Man(a1-6)]Man(a1-6)[Man(a1-2)Man(a1-3)]Man(b1-4)GlcNAc(b1-4)GlcNAc", "method_in_brief": "as §1"}, "[12]": {"biological_target": "Man(a1-2)Man(a1-6)[Man(a1-3)]Man(a1-6)[Man(a1-2)Man(a1-2)Man(a1-3)]Man", "method_in_brief": "as §1"}, "[13]": {"biological_target": "Man(a1-2)Man(a1-6)[Man(a1-3)]Man(a1-6)[Man(a1-2)Man(a1-2)Man(a1-3)]Man(b1-4)GlcNAc(b1-4)GlcNAc", "method_in_brief": "as §1"}, "Man(a1-3)[Man(a1-6)]Man": {"biological_target": "Man(a1-3)[Man(a1-6)]Man", "method_in_brief": "as §1"}, "[14]": {"biological_target": "Man(a1-3)[Man(a1-6)]Man(a1-6)[Man(a1-2)Man(a1-3)]Man(b1-4)GlcNAc(b1-4)GlcNAc", "method_in_brief": "as §1"}, "[15]": {"biological_target": "Man(a1-3)[Man(a1-6)]Man(a1-6)[Man(a1-3)]Man", "method_in_brief": "as §1"}, "[16]": {"biological_target": "Man(a1-3)[Man(a1-6)]Man(a1-6)[Man(a1-3)]Man(b1-4)GlcNAc(b1-4)GlcNAc", "method_in_brief": "as §1"}, "[17]": {"biological_target": "Man(a1-3)[Man(a1-6)]Man(b1-4)GlcNAc(b1-4)GlcNAc", "method_in_brief": "as §1"}, "[18]": {"biological_target": "Man(a1-3)[Man(a1-6)]Man(b1-4)GlcNAc(b1-4)[Fuc(a1-6)]GlcNAc", "method_in_brief": "as §1"}, "Man(a1-6)Man": {"biological_target": "Man(a1-6)Man", "method_in_brief": "as §1"}, "Man(b1-4)GlcNAc": {"biological_target": "Man(b1-4)GlcNAc", "method_in_brief": "as §1"}, "MurNAc(b1-4)GlcNAc": {"biological_target": "MurNAc(b1-4)GlcNAc", "method_in_brief": "as §1"}, "Neu5Ac(a2-3)Gal": {"biological_target": "Neu5Ac(a2-3)Gal", "method_in_brief": "as §1"}, "[19]": {"biological_target": "Neu5Ac(a2-3)Gal(b1-3)GalNAc", "method_in_brief": "as §1"}, "[20]": {"biological_target": "Neu5Ac(a2-3)Gal(b1-3)GalNAc(b1-3)Gal(a1-4)Gal(b1-4)Glc", "method_in_brief": "as §1"}, "[21]": {"biological_target": "Neu5Ac(a2-3)Gal(b1-3)GalNAc(b1-4)[Neu5Ac(a2-3)]Gal(b1-4)Glc", "method_in_brief": "as §1"}, "[22]": {"biological_target": "Neu5Ac(a2-3)Gal(b1-3)GalNAc(b1-4)[Neu5Ac(a2-8)Neu5Ac(a2-3)]Gal(b1-4)Glc", "method_in_brief": "as §1"}, "[23]": {"biological_target": "Neu5Ac(a2-3)Gal(b1-3)GalNAc6S", "method_in_brief": "as §1"}, "[24]": {"biological_target": "Neu5Ac(a2-3)Gal(b1-3)GlcNAc", "method_in_brief": "as §1"}, "[25]": {"biological_target": "Neu5Ac(a2-3)Gal(b1-3)GlcNAc(b1-2)Man", "method_in_brief": "as §1"}}, "note": "This is one part of the list."}
{"binder": "PX9961Q-bfa-504-27-504 (Bacteroides fragilis) (protein) NDWLDRKPADGIPSEDAITNYNDALTARTGMYDGIQGNSNATSYYGARMFYYGDVRADDMQARTQGMRSSSCYEMLYTVDDAPNMWNIPYNVIRRANRLIEAINEKKVTDATEAQIGKIYSEALVVRALVHFDLVRIYGMPYTADNGASLGVPVIVKPLERNDLPSRNTVAEVYTQVITDLTDAINSGYLAKDQTPGYINEWAAKALLTRVYLTKGDNENALKVAEDIITNSPYKLWTNEEYVNAWYKSNGAHTNEMIFEVVNASNDDWTDRNGIAYLLNENGYADAIVTKSFMNMLSQDPKDVRIGMVLPAQYDKDLQEEYGDAKIFINKFPADKDDVGEMRLNNLPLLRLSEVYLSAAEAAAKLGGHQDKAAKYLNEIVQRANPEAKAISEADATVERIILERRKEMIGEGQRYFDALRNNETIVRYKDEGDKGYHYSLIKESQSFDRTYFRAILPIPVDETNVNPNLRAQQNPGY", "values": [{"measurement": "glycan array binding signal (z-score)", "setting": "[1]", "value": -0.594}, {"measurement": "glycan array binding signal (z-score)", "setting": "[2]", "value": -0.549}, {"measurement": "glycan array binding signal (z-score)", "setting": "[3]", "value": 0.387}, {"measurement": "glycan array binding signal (z-score)", "setting": "GlcNAc(b1-6)GalNAc", "value": 0.361}, {"measurement": "glycan array binding signal (z-score)", "setting": "[4]", "value": -0.463}, {"measurement": "glycan array binding signal (z-score)", "setting": "Kdn(a2-3)Gal(b1-3)GalNAc", "value": 0.008}, {"measurement": "glycan array binding signal (z-score)", "setting": "Kdn(a2-3)Gal(b1-3)GlcNAc", "value": -0.992}, {"measurement": "glycan array binding signal (z-score)", "setting": "Kdn(a2-3)Gal(b1-4)Glc", "value": -0.215}, {"measurement": "glycan array binding signal (z-score)", "setting": "Kdn(a2-3)Gal(b1-4)GlcNAc", "value": 0.306}, {"measurement": "glycan array binding signal (z-score)", "setting": "[5]", "value": 1.91}, {"measurement": "glycan array binding signal (z-score)", "setting": "Kdn(a2-6)Gal(b1-4)GlcNAc", "value": 0.757}, {"measurement": "glycan array binding signal (z-score)", "setting": "[6]", "value": 0.58}, {"measurement": "glycan array binding signal (z-score)", "setting": "[7]", "value": 0.712}, {"measurement": "glycan array binding signal (z-score)", "setting": "Man(a1-2)Man(a1-3)Man", "value": 0.177}, {"measurement": "glycan array binding signal (z-score)", "setting": "[8]", "value": -0.309}, {"measurement": "glycan array binding signal (z-score)", "setting": "[9]", "value": -1.15}, {"measurement": "glycan array binding signal (z-score)", "setting": "[10]", "value": 0.272}, {"measurement": "glycan array binding signal (z-score)", "setting": "[11]", "value": -0.67}, {"measurement": "glycan array binding signal (z-score)", "setting": "[12]", "value": -0.348}, {"measurement": "glycan array binding signal (z-score)", "setting": "[13]", "value": 0.616}, {"measurement": "glycan array binding signal (z-score)", "setting": "Man(a1-3)[Man(a1-6)]Man", "value": -1.24}, {"measurement": "glycan array binding signal (z-score)", "setting": "[14]", "value": -0.452}, {"measurement": "glycan array binding signal (z-score)", "setting": "[15]", "value": 0.661}, {"measurement": "glycan array binding signal (z-score)", "setting": "[16]", "value": 0.933}, {"measurement": "glycan array binding signal (z-score)", "setting": "[17]", "value": -0.057}, {"measurement": "glycan array binding signal (z-score)", "setting": "[18]", "value": -0.197}, {"measurement": "glycan array binding signal (z-score)", "setting": "Man(a1-6)Man", "value": -0.352}, {"measurement": "glycan array binding signal (z-score)", "setting": "Man(b1-4)GlcNAc", "value": 1.19}, {"measurement": "glycan array binding signal (z-score)", "setting": "MurNAc(b1-4)GlcNAc", "value": -0.265}, {"measurement": "glycan array binding signal (z-score)", "setting": "Neu5Ac(a2-3)Gal", "value": -0.059}, {"measurement": "glycan array binding signal (z-score)", "setting": "[19]", "value": -0.722}, {"measurement": "glycan array binding signal (z-score)", "setting": "[20]", "value": -0.286}, {"measurement": "glycan array binding signal (z-score)", "setting": "[21]", "value": -0.636}, {"measurement": "glycan array binding signal (z-score)", "setting": "[22]", "value": -0.412}, {"measurement": "glycan array binding signal (z-score)", "setting": "[23]", "value": -0.665}, {"measurement": "glycan array binding signal (z-score)", "setting": "[24]", "value": -0.213}, {"measurement": "glycan array binding signal (z-score)", "setting": "[25]", "value": -0.633}]}
